The record followed here is PubChem BioAssay AID328 (DTP/NCI, 2004).

The list is a part of this screen's results and no random one: it gathers tests that were run many times, whatever their T/C, doses with no T/C, and many T/C values between a quarter and a half above the control. Other doses and runs of a compound stand elsewhere. T/C: endpoint of the treated group in % of that of the vehicle group. Some doses have a count of surviving animals in place of a T/C: the source holds a T/C of zero for them, seemingly a mark for toxic or unscored doses. Some doses without a T/C left all or most animals alive at the check, yet need not have been tolerated: survival well below the control is almost never listed, so the zero probably covers shortened survival too. Counts of survivors are from the toxicity check (mostly the fifth day) where no day follows; animals may have died later. Schedule codes are those of the source, read here as Q, the interval in days (D) or hours (H), X, the number of doses. Where survival is the endpoint, the PubChem record calls one and a half times the control and up active, and a quarter to a half above the control has no call in these data; cut-offs in other NCI protocols can differ. Some entries were tested several times; the values are given in rising order. Some T/C values carry the count of animals alive at the toxicity check (mostly the fifth day); where none is given, no animal had died by that day.

The test system of this assay is BDF1 mice, P388 leukemia ip, median survival T/C. The assay can be described thus: NCI In Vivo Anticancer Drug Screen. Data for tumor model P388 Leukemia (intraperitoneal) in B6D2F1 (BDF1) mice. Particulars: T/C endpoint: median survival time, higher T/C = longer survival. The procedure, abridged:
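Compound-treated tumour-bearing mice were compared with vehicle-treated controls. Survival was recorded, and the value is the treated-group measurement divided by the control-group measurement (T/C).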

[1] abbreviates: dose: 50.0 mg/kg/injection, schedule: Q01DX009 (ip), vehicle: saline with Tween-80.
The mark [2] stands for this setting: dose: 25.0 mg/kg/injection, schedule: Q01DX009 (ip), vehicle: Klucel (hydroxypropylcellulose) (HPC).
The mark [3] stands for this setting: dose: 100.0 mg/kg/injection, schedule: Q01DX009 (ip), vehicle: Klucel (hydroxypropylcellulose) (HPC).
Where [4] appears, read: dose: 200.0 mg/kg/injection, schedule: Q04DX003 (ip), vehicle: Klucel (hydroxypropylcellulose) (HPC).
[5] abbreviates: dose: 6.25 mg/kg/injection, schedule: Q01DX009 (ip), vehicle: Klucel (hydroxypropylcellulose) (HPC).
The mark [6] stands for this setting: dose: 12.5 mg/kg/injection, schedule: Q01DX009 (ip), vehicle: Klucel (hydroxypropylcellulose) (HPC).

Regarding `O=C(CCN1CC1)OCCOC(=O)CCN1CC1`, the T/C was 141 % of control (dose: 3.0 mg/kg/injection, schedule: Q01DX009 (ip), vehicle: saline with Tween-80) and 129 % of control (dose: 6.0 mg/kg/injection, schedule: Q01DX009 (ip), vehicle: saline with Tween-80). The survivor count is, setting by setting: (dose: 12.5 mg/kg/injection, schedule: Q01DX009 (ip), vehicle: saline with Tween-80) 6 of 6; (dose: 25.0 mg/kg/injection, schedule: Q01DX009 (ip), vehicle: saline with Tween-80) 6 of 6; under setting [1], 5 of 6; (dose: 110.0 mg/kg/injection, schedule: Q04DX003 (ip), vehicle: saline with Tween-80) 3 of 6.

As to `CN(C)c1ccc(/C=C/c2ccnc3ccccc23)c(O)c1`, the T/C by setting is: (dose: 200.0 mg/kg/injection, schedule: Q04DX003 (ip), vehicle: saline with Tween-80) 126 % of control; (dose: 400.0 mg/kg/injection, schedule: Q04DX003 (ip), vehicle: saline with Tween-80) 141 % of control.

For the molecule `C#CCCC#C`, the T/C (dose: 100.0 mg/kg/injection, schedule: Q01DX009 (ip), vehicle: saline with Tween-80) was 134 % of control.

`CC(C)=CC(=O)OC1C2C(C)C(=O)OC2C(O)C(C)C2C=CC(=O)C21C` (stereo not given): the T/C is 133 % of control under setting [2]; 141 % of control under setting [3]; 137 % of control (dose: 100.0 mg/kg/injection, schedule: Q01DX009 (ip), vehicle: saline). Also, the survivor count (dose: 200.0 mg/kg/injection, schedule: Q01DX009 (ip), vehicle: saline) was 6 of 6.

For `O=C(O)/C(Cl)=C(Cl)\C=N\Nc1ccccc1`, the survivor count is, setting by setting: (dose: 100.0 mg/kg/injection, schedule: Q04DX002 (ip), vehicle: saline with Tween-80) 6 of 6; (dose: 400.0 mg/kg/injection, schedule: Q04DX002 (ip), vehicle: saline with Tween-80) 0 of 6.

Regarding `COC(COC(N)=O)C1=C(N2CC2)C(=O)C(C)=C(N2CC2)C1=O` (stereo not given), the T/C by setting is: (dose: 0.06 mg/kg/injection, schedule: Q01DX009 (ip), vehicle: saline) 145 % of control; (dose: 1.0 mg/kg/injection, schedule: Q01DX009 (ip), vehicle: saline) 133 % of control. Further, the survivor count (dose: 2.0 mg/kg/injection, schedule: Q01DX009 (ip), vehicle: saline) is 6 of 6.

Consider `O=[N+]([O-])c1ccc(Oc2ccc(-c3ccccc3)cc2)c(Cl)c1`, for which, under “dose: 37.5 mg/kg/injection, schedule: Q01DX009 (ip), vehicle: saline with Tween-80”, the survivor count is recorded as 7 of 7.

Take `NC(=O)OCCI`: the T/C under setting [4] is 127 % of control. In addition, the survivor count (dose: 300.0 mg/kg/injection, schedule: Q04DX003 (ip), vehicle: Klucel (hydroxypropylcellulose) (HPC)) is 4 of 6.

As for `CC(=O)OCC(=O)[C@@]1(O)[C@H](C)C[C@H]2[C@@H]3C=C(C)C4=Cc5c(cnn5-c5ccc(F)cc5)C[C@]4(C)[C@H]3[C@@H](O)C[C@@]21C`, the survivor count was 6 of 6 (dose: 1.56 mg/kg/injection, schedule: Q01DX009 (ip), vehicle: steroid suspending solution); 6 of 6 (dose: 3.12 mg/kg/injection, schedule: Q01DX009 (ip), vehicle: steroid suspending solution); 4 of 6 under setting [5]; 6 of 6 (dose: 6.25 mg/kg/injection, schedule: Q01DX009 (ip), vehicle: steroid suspending solution); 5 of 6 (dose: 7.9 mg/kg/injection, schedule: Q04DX003 (sc), vehicle: steroid suspending solution); 2 of 6 under setting [6]. In addition, the survivor count is, setting by setting: under setting [2], 2 of 6; (dose: 25.0 mg/kg/injection, schedule: Q04DX003 (ip), vehicle: Klucel (hydroxypropylcellulose) (HPC)) 5 of 6; (dose: 50.0 mg/kg/injection, schedule: Q04DX003 (ip), vehicle: Klucel (hydroxypropylcellulose) (HPC)) 6 of 6; (dose: 100.0 mg/kg/injection, schedule: Q04DX003 (ip), vehicle: Klucel (hydroxypropylcellulose) (HPC)) 6 of 6; under setting [4], 2 of 6; (dose: 400.0 mg/kg/injection, schedule: Q04DX003 (ip), vehicle: Klucel (hydroxypropylcellulose) (HPC)) 1 of 6.

In the case of `COc1ccc(-c2cc(C)n(C)[n+]2C)cc1`, the survivor count under setting [1] is 2 of 6.

Consider `COc1ccc(C2CCc3cc(OC)c(OC)cc3C2=O)cc1OC` (stereo not given), for which the survivor count is 6 of 6 (dose: 40.0 mg/kg/injection, schedule: Q01DX009 (ip), vehicle: saline with Tween-80) and 6 of 6 (dose: 240.0 mg/kg/injection, schedule: Q01DX009 (ip), vehicle: saline with Tween-80).

On to `COc1cc2oc(-c3ccc(O)cc3O)c(CC=C(C)C)c(=O)c2c(O)c1/C=C/C(C)C`, for which the T/C under setting [5] was 126 % of control.

Turning to `Cc1ccc(C(O)(CS(C)=O)c2ccco2)cc1` (stereo not given), the survivor count (dose: 200.0 mg/kg/injection, schedule: Q01DX009 (ip), vehicle: saline + alcohol) is 5 of 6.

As to `CC(C)(C)C1CC[N-]CC1.CC(C)(C)C1CC[N-]CC1.[Cl][Pt+2]([Cl])([Cl])[Cl]`, the T/C by setting is: (dose: 6.25 mg/kg/injection, schedule: Q01DX009 (ip), vehicle: saline) 130 % of control; (dose: 12.5 mg/kg/injection, schedule: Q01DX009 (ip), vehicle: saline) 127 and 131 % of control. Besides, the survivor count is 3 of 6 (dose: 25.0 mg/kg/injection, schedule: Q01DX009 (ip), vehicle: saline) and 1 of 6 (dose: 50.0 mg/kg/injection, schedule: Q01DX009 (ip), vehicle: saline).

For the molecule `CCOc1ccc(Nc2c3ccccc3nc3ccccc23)cc1`, the T/C by setting is: (dose: 3.12 mg/kg/injection, schedule: Q01DX009 (ip), vehicle: Klucel (hydroxypropylcellulose) (HPC)) 137 % of control; (dose: 6.12 mg/kg/injection, schedule: Q01DX009 (ip), vehicle: Klucel (hydroxypropylcellulose) (HPC)) 149 % of control [5 of 6 alive]; under setting [6], 137 % of control; under setting [2], 126 and 149 % of control; (dose: 50.0 mg/kg/injection, schedule: Q01DX009 (ip), vehicle: Klucel (hydroxypropylcellulose) (HPC)) 146 % of control. In addition, the survivor count is recorded as 6 of 6 under setting [3] and 1 of 6 (dose: 200.0 mg/kg/injection, schedule: Q01DX009 (ip), vehicle: Klucel (hydroxypropylcellulose) (HPC)).

`NC(N)=NO`: the T/C runs as follows: (dose: 75.0 mg/kg/injection, schedule: Q01DX009 (ip), vehicle: saline, evaluated on day 5) 131 % of control; (dose: 75.0 mg/kg/injection, schedule: Q01DX009 (ip), vehicle: saline, evaluated on day 60) 129 % of control; (dose: 100.0 mg/kg/injection, schedule: Q01DX009 (ip), vehicle: saline, evaluated on day 5) 136 % of control; (dose: 100.0 mg/kg/injection, schedule: Q01DX009 (ip), vehicle: saline, evaluated on day 60) 133 % of control; (dose: 150.0 mg/kg/injection, schedule: Q01DX009 (ip), vehicle: saline, evaluated on day 5) 149 % of control; (dose: 150.0 mg/kg/injection, schedule: Q01DX009 (ip), vehicle: saline, evaluated on day 60) 145 % of control.
